# Some of the results follow.
# B1: Surfactant Protein D (Human); Neck + Carbohydrate Recognition Domain (NCRD) (Homo sapiens) (protein)
# chain: MLLFLLSALVLLTQPLGYLEAEMKTYSHRTMPSACTLVMCSSVESGLPGRDRDGREGPRGEKGDPGLPGAAGQAGMPGQAGPVGPKGDNGSVGEPGPKGDTGPSGPPGPPGVPGPAGREGALGKQGNIGPQGKPGPKGEAGPKGEVGAPGMQGSAGARGLAGPKGERGVPGERGVPGNTGAAGSAGAMGPQGSPGARGPPGLKGDKGIPGDKGAKGESGLPDVASLRQQVEALQGQVQHLQAAFSQYKKVELFPNGQSVGEKIFKTAQFVKPFTEAQLLCTQAGGQLASPRSAAENAALQQLVVAKNEAAFLSMTDSKTEGKFTYPTGESLVYSNWAPGKPNDDGGSEDCVEIFTNGKWNDRACGEKRLVVCEF
# Tests used:
# Assay in all cases: glycan array binding signal (z-score within array); higher = stronger binding
# Conditions in all cases: glycan notation: IUPAC condensed, linker removed; mutation: E321K
# Fuc(a1-2)Gal = target: Fuc(a1-2)Gal
# Method in brief: (§1)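 Glycan array data came from 3228 arrays in the Consortium for Functional Glycomics database, and only arrays with an available protein sequence were kept. Glycan names were put into IUPAC-condensed notation, and columns mapping to the same glycan were averaged. The binding signal is a within-array Z-score, averaged across arrays of one protein sequence run at different concentrations or buffers and across linkers. A negative Z-score can be read as non-binding.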
# Fuc(a1-2)Gal(b1-3)GalNAc = target: Fuc(a1-2)Gal(b1-3)GalNAc
# Method in brief: as §1
# [1] = target: Fuc(a1-2)Gal(b1-3)GalNAc(b1-3)Gal
# Method in brief: as §1
# [2] = target: Fuc(a1-2)Gal(b1-3)GalNAc(b1-3)Gal(a1-4)Gal(b1-4)Glc
# Method in brief: as §1
# [3] = target: Fuc(a1-2)Gal(b1-3)GalNAc(b1-4)[Neu5Ac(a2-3)]Gal(b1-4)Glc
# Method in brief: as §1
# Fuc(a1-2)Gal(b1-3)GlcNAc = target: Fuc(a1-2)Gal(b1-3)GlcNAc
# Method in brief: as §1
# [4] = target: Fuc(a1-2)Gal(b1-3)GlcNAc(b1-3)Gal(b1-4)Glc
# Method in brief: as §1
# [5] = target: Fuc(a1-2)Gal(b1-3)[Fuc(a1-4)]GlcNAc
# Method in brief: as §1
# Fuc(a1-2)Gal(b1-4)Glc = target: Fuc(a1-2)Gal(b1-4)Glc
# Method in brief: as §1
# Fuc(a1-2)Gal(b1-4)Glc6S = target: Fuc(a1-2)Gal(b1-4)Glc6S
# Method in brief: as §1
# Fuc(a1-2)Gal(b1-4)GlcNAc = target: Fuc(a1-2)Gal(b1-4)GlcNAc
# Method in brief: as §1
# [6] = target: Fuc(a1-2)Gal(b1-4)GlcNAc(b1-3)Gal(b1-4)GlcNAc
# Method in brief: as §1
# [7] = target: Fuc(a1-2)Gal(b1-4)GlcNAc(b1-3)Gal(b1-4)GlcNAc(b1-3)Gal(b1-4)GlcNAc
# Method in brief: as §1
# [8] = target: Fuc(a1-2)Gal(b1-4)GlcNAc6S
# Method in brief: as §1
# [9] = target: Fuc(a1-2)Gal(b1-4)[Fuc(a1-3)]GlcNAc
# Method in brief: as §1
# [10] = target: Fuc(a1-2)Gal(b1-4)[Fuc(a1-3)]GlcNAc(b1-3)Gal(b1-4)[Fuc(a1-3)]GlcNAc
# Method in brief: as §1
# [11] = target: Fuc(a1-2)Gal(b1-4)[Fuc(a1-3)]GlcNAc(b1-3)Gal(b1-4)[Fuc(a1-3)]GlcNAc(b1-3)Gal(b1-4)[Fuc(a1-3)]GlcNAc
# Method in brief: as §1
# Fuc(a1-2)Gal6S(b1-4)Glc = target: Fuc(a1-2)Gal6S(b1-4)Glc
# Method in brief: as §1
# [12] = target: Fuc(a1-2)Gal6S(b1-4)Glc6S
# Method in brief: as §1
# [13] = target: Fuc(a1-2)Gal6S(b1-4)GlcNAc
# Method in brief: as §1
# Fuc(a1-2)[Gal(a1-3)]Gal = target: Fuc(a1-2)[Gal(a1-3)]Gal
# Method in brief: as §1
# [14] = target: Fuc(a1-2)[Gal(a1-3)]Gal(b1-3)GlcNAc
# Method in brief: as §1
# [15] = target: Fuc(a1-2)[Gal(a1-3)]Gal(b1-4)Glc
# Method in brief: as §1
# [16] = target: Fuc(a1-2)[Gal(a1-3)]Gal(b1-4)GlcNAc
# Method in brief: as §1
# [17] = target: Fuc(a1-2)[Gal(a1-3)]Gal(b1-4)[Fuc(a1-3)]GlcNAc
# Method in brief: as §1
# [18] = target: Fuc(a1-2)[Gal(a1-4)]Gal(b1-4)GlcNAc
# Method in brief: as §1
# [19] = target: Fuc(a1-2)[GalNAc(a1-3)]Gal
# Method in brief: as §1
# [20] = target: Fuc(a1-2)[GalNAc(a1-3)]Gal(b1-3)GlcNAc
# Method in brief: as §1
# [21] = target: Fuc(a1-2)[GalNAc(a1-3)]Gal(b1-4)Glc
# Method in brief: as §1
# [22] = target: Fuc(a1-2)[GalNAc(a1-3)]Gal(b1-4)GlcNAc
# Method in brief: as §1
# [23] = target: Fuc(a1-2)[GalNAc(a1-3)]Gal(b1-4)[Fuc(a1-3)]GlcNAc
# Method in brief: as §1
# [24] = target: Fuc(a1-2)[GalNAc(a1-4)]Gal(b1-4)GlcNAc
# Method in brief: as §1
# [25] = target: Fuc(a1-2)[GalNAc(b1-3)]Gal
# Method in brief: as §1
# Fuc(a1-3)GlcNAc = target: Fuc(a1-3)GlcNAc
# Method in brief: as §1
# [26] = target: Fuc(a1-3)[Gal(b1-4)]Glc6S
# Method in brief: as §1
# [27] = target: Fuc(a1-3)[Gal(b1-4)]GlcNAc
# Method in brief: as §1
# [28] = target: Fuc(a1-3)[Gal(b1-4)]GlcNAc(b1-2)Man(a1-3)[Fuc(a1-3)[Gal(b1-4)]GlcNAc(b1-2)Man(a1-6)]Man(b1-4)GlcNAc(b1-4)GlcNAc
# Method in brief: as §1
# [29] = target: Fuc(a1-3)[Gal(b1-4)]GlcNAc(b1-2)Man(a1-6)[Gal(b1-4)GlcNAc(b1-2)Man(a1-3)]Man(b1-4)GlcNAc(b1-4)GlcNAc
# Method in brief: as §1
# [30] = target: Fuc(a1-3)[Gal(b1-4)]GlcNAc(b1-3)Gal(b1-3)[Fuc(a1-4)]GlcNAc
# Method in brief: as §1
# [31] = target: Fuc(a1-3)[Gal(b1-4)]GlcNAc(b1-4)Gal(b1-4)[Fuc(a1-3)]GlcNAc
# Method in brief: as §1
# [32] = target: Fuc(a1-3)[Gal(b1-4)]GlcNAc(b1-4)Gal(b1-4)[Fuc(a1-3)]GlcNAc(b1-4)Gal(b1-4)[Fuc(a1-3)]GlcNAc
# Method in brief: as §1
# [33] = target: Fuc(a1-3)[Gal(b1-4)]GlcNAc6S
# Method in brief: as §1
# [34] = target: Fuc(a1-3)[Gal3S(b1-4)]Glc6S
# Method in brief: as §1
# [35] = target: Fuc(a1-3)[Gal3S(b1-4)]GlcNAc
# Method in brief: as §1
# [36] = target: Fuc(a1-3)[Gal3S(b1-4)]GlcNAc6S
# Method in brief: as §1
# [37] = target: Fuc(a1-3)[GalNAc(b1-4)]GlcNAc
# Method in brief: as §1
# Fuc(a1-4)GlcNAc = target: Fuc(a1-4)GlcNAc
# Method in brief: as §1
# Fuc(b1-3)GlcNAc = target: Fuc(b1-3)GlcNAc
# Method in brief: as §1
# Gal(a1-2)Gal = target: Gal(a1-2)Gal
# Method in brief: as §1
# Gal(a1-3)Gal = target: Gal(a1-3)Gal
# Method in brief: as §1
# Gal(a1-3)Gal(b1-3)GlcNAc = target: Gal(a1-3)Gal(b1-3)GlcNAc
# Method in brief: as §1
# Gal(a1-3)Gal(b1-4)Glc = target: Gal(a1-3)Gal(b1-4)Glc
# Method in brief: as §1
# Gal(a1-3)Gal(b1-4)GlcNAc = target: Gal(a1-3)Gal(b1-4)GlcNAc
# Method in brief: as §1
# [38] = target: Gal(a1-3)Gal(b1-4)[Fuc(a1-3)]GlcNAc
# Method in brief: as §1
# Gal(a1-3)GalNAc = target: Gal(a1-3)GalNAc
# Method in brief: as §1
# [39] = target: Gal(a1-3)[Gal(a1-4)]Gal(b1-4)GlcNAc
# Method in brief: as §1
# Gal(a1-4)Gal(b1-4)Glc = target: Gal(a1-4)Gal(b1-4)Glc
# Method in brief: as §1
# Gal(a1-4)Gal(b1-4)GlcNAc = target: Gal(a1-4)Gal(b1-4)GlcNAc
# Method in brief: as §1
# Gal(a1-4)GlcNAc = target: Gal(a1-4)GlcNAc
# Method in brief: as §1
# Gal(a1-6)Glc = target: Gal(a1-6)Glc
# Method in brief: as §1
binder,measurement,setting,value
B1,glycan array binding signal (z-score),Fuc(a1-2)Gal,-0.314
same,glycan array binding signal (z-score),Fuc(a1-2)Gal(b1-3)GalNAc,-0.221
same,glycan array binding signal (z-score),[1],-0.212
same,glycan array binding signal (z-score),[2],0.12
same,glycan array binding signal (z-score),[3],-0.616
same,glycan array binding signal (z-score),Fuc(a1-2)Gal(b1-3)GlcNAc,-0.526
same,glycan array binding signal (z-score),[4],-0.896
same,glycan array binding signal (z-score),[5],0.986
same,glycan array binding signal (z-score),Fuc(a1-2)Gal(b1-4)Glc,-0.62
same,glycan array binding signal (z-score),Fuc(a1-2)Gal(b1-4)Glc6S,-0.524
same,glycan array binding signal (z-score),Fuc(a1-2)Gal(b1-4)GlcNAc,-0.6
same,glycan array binding signal (z-score),[6],0.004
same,glycan array binding signal (z-score),[7],-0.044
same,glycan array binding signal (z-score),[8],0.229
same,glycan array binding signal (z-score),[9],-0.011
same,glycan array binding signal (z-score),[10],0.16
same,glycan array binding signal (z-score),[11],1.25
same,glycan array binding signal (z-score),Fuc(a1-2)Gal6S(b1-4)Glc,0.45
same,glycan array binding signal (z-score),[12],0.578
same,glycan array binding signal (z-score),[13],1.44
same,glycan array binding signal (z-score),Fuc(a1-2)[Gal(a1-3)]Gal,-0.533
same,glycan array binding signal (z-score),[14],-0.11
same,glycan array binding signal (z-score),[15],-0.072
same,glycan array binding signal (z-score),[16],-0.71
same,glycan array binding signal (z-score),[17],0.06
same,glycan array binding signal (z-score),[18],0.984
same,glycan array binding signal (z-score),[19],-0.333
same,glycan array binding signal (z-score),[20],-0.437
same,glycan array binding signal (z-score),[21],-0.826
same,glycan array binding signal (z-score),[22],0.384
same,glycan array binding signal (z-score),[23],0.05
same,glycan array binding signal (z-score),[24],-0.35
same,glycan array binding signal (z-score),[25],-0.418
same,glycan array binding signal (z-score),Fuc(a1-3)GlcNAc,-0.981
same,glycan array binding signal (z-score),[26],0.3
same,glycan array binding signal (z-score),[27],1.15
same,glycan array binding signal (z-score),[28],0.679
same,glycan array binding signal (z-score),[29],-0.239
same,glycan array binding signal (z-score),[30],-0.095
same,glycan array binding signal (z-score),[31],-0.279
same,glycan array binding signal (z-score),[32],0.661
same,glycan array binding signal (z-score),[33],1.76
same,glycan array binding signal (z-score),[34],0.396
same,glycan array binding signal (z-score),[35],1.05
same,glycan array binding signal (z-score),[36],-0.022
same,glycan array binding signal (z-score),[37],-0.687
same,glycan array binding signal (z-score),Fuc(a1-4)GlcNAc,-0.581
same,glycan array binding signal (z-score),Fuc(b1-3)GlcNAc,0.752
same,glycan array binding signal (z-score),Gal(a1-2)Gal,-0.831
same,glycan array binding signal (z-score),Gal(a1-3)Gal,-0.277
same,glycan array binding signal (z-score),Gal(a1-3)Gal(b1-3)GlcNAc,-0.222
same,glycan array binding signal (z-score),Gal(a1-3)Gal(b1-4)Glc,-0.338
same,glycan array binding signal (z-score),Gal(a1-3)Gal(b1-4)GlcNAc,0.494
same,glycan array binding signal (z-score),[38],-0.952
same,glycan array binding signal (z-score),Gal(a1-3)GalNAc,-0.893
same,glycan array binding signal (z-score),[39],0.032
same,glycan array binding signal (z-score),Gal(a1-4)Gal(b1-4)Glc,-0.691
same,glycan array binding signal (z-score),Gal(a1-4)Gal(b1-4)GlcNAc,0.234
same,glycan array binding signal (z-score),Gal(a1-4)GlcNAc,0.373
same,glycan array binding signal (z-score),Gal(a1-6)Glc,-1.01

# A different layout for part of the listing above:
binder	measurement	setting	value
B1	glycan array binding signal (z-score)	[21]	-0.826
same	glycan array binding signal (z-score)	[22]	0.384
same	glycan array binding signal (z-score)	[23]	0.05
same	glycan array binding signal (z-score)	[24]	-0.35
same	glycan array binding signal (z-score)	[25]	-0.418
same	glycan array binding signal (z-score)	Fuc(a1-3)GlcNAc	-0.981
same	glycan array binding signal (z-score)	[26]	0.3
same	glycan array binding signal (z-score)	[27]	1.15
same	glycan array binding signal (z-score)	[28]	0.679
same	glycan array binding signal (z-score)	[29]	-0.239
same	glycan array binding signal (z-score)	[30]	-0.095
same	glycan array binding signal (z-score)	[31]	-0.279

# From the supplement of paper PMC8728848
